Source: PubChem BioAssay AID720504 (National Center for Advancing Translational Sciences (NCATS), 2013)
Screen size: about 360,000 compounds; about 10,000 (2.8%) were called active. Inconclusive means that the source gave no clear call. Such entries were picked first, then a sample of the others. Calls follow the shape of the dose curve; as a rule, active = well fitted inhibition curve with a large enough effect; inconclusive = small, poorly fitted or top-dose-only effect; inactive = flat fitted curve, though single readings scatter. Potencies of inconclusive entries are doubtful fits and often do not repeat.

Amino acid sequences for entries named in this document (tags omitted).
UniProt P53350, whole entry, looked up: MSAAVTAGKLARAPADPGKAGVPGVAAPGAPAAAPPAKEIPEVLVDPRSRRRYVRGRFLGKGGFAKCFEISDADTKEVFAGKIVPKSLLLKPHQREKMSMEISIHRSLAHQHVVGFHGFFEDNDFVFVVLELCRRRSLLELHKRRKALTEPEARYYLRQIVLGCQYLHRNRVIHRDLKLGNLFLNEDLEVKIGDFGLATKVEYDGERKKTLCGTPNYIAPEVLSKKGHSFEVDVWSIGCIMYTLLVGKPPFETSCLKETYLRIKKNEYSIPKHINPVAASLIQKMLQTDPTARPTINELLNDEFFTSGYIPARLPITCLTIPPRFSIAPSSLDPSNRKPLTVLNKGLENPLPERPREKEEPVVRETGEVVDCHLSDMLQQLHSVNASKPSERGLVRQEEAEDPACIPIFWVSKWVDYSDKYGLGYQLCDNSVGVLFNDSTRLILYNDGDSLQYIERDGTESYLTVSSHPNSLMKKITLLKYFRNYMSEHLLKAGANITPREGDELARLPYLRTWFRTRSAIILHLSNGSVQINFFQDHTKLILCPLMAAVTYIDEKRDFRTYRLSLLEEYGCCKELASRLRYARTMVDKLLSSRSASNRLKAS

What follows are compounds tested against Serine/threonine-protein kinase PLK1 (Homo sapiens) (UniProt P53350) (assay: qHTS for Inhibitors of PLK1-PDB (polo-like kinase 1 - polo-box domain): Primary Screen). Details: Plk1 PBD binding of FITC phosphopeptide, fluorescence polarization.
% is scaled to controls: 0 for no effect and ±100 for the full control effect; potency is read from the fitted curve at half-maximal effect.
Also: nearly all actives have a fitted effect of over 65% in size.
For max response, negative = inhibition in this document: series mostly up to about 57 µM.

Structure (SMILES) | Potency | max response, negative = inhibition
CCN1CCN(C(=S)c2ccc(O)cc2)CC1 | active: 4.74 µM | –
CC(=O)N(Cc1cc(=O)[nH]c2ccccc12)c1ccc(C)cc1C | inconclusive: 26.7 µM [inhibitor, single point] | –
COC(=O)c1sc(=S)n(-c2cccc(Cl)c2)c1N | active: 8.44 µM | –
COc1ccc(-c2nn3c(-c4ccccn4)nnc3s2)cc1OC | – | inactive: -6.21%
COc1cc(CNCCN2CCOCC2)ccc1OCC(=O)NC(C)(C)C | – | inactive: -7.17%
O=C(/C=C/c1ccc(Cl)cc1Cl)Nc1cccc(S(=O)(=O)NC2=NCCC2)c1 | active: 16.8 µM | –
Cc1ccc(C(C(=O)NCCc2ccccc2)N(C(=O)c2csnn2)C2CC2)cc1 (centres undefined) | inconclusive: 33.6 µM [inhibitor, single point] | –
COc1ccc(C(=O)/C=C2\Sc3ccccc3N2C)cc1 | – | inconclusive: -32.6% [inhibitor]
C=COc1ccc(N2C(=O)c3ccccc3OC2C)cc1 (centres undefined) | – | inactive: -9.56%
O=C(O)c1ccc(Sc2nnc3ccccn23)c([N+](=O)[O-])c1 | – | inactive: -13.4%
Cc1cc(=O)oc2cc(OCC(=O)N3CCOCC3)ccc12 | active: 26.7 µM | –
CCOC(=O)C(C)Sc1nnc(Cn2c(=O)sc3ccccc32)n1-c1ccccc1 (centres undefined) | – | inconclusive: -32.9% [inhibitor]
CC(C)(C)OC(=O)N[C@H](C(=O)OC(C)(C)C)c1ccc(C(F)(F)F)cc1 | – | inactive: -3.61%
Cc1ccc(-c2csc3nc[nH]c(=S)c23)cc1 | – | inactive: -10.7%
CCCc1[nH]nc2c1C(c1ccsc1)C(C#N)=C(N)O2 (centres undefined) | inconclusive: 33.6 µM [inhibitor, single point] | –
COc1ccc(-c2nc(CS(=O)(=O)CC(=O)NCc3cccc(Br)c3)c(C)o2)cc1 | inconclusive: 26.7 µM [inhibitor, partial curve] | –
COC(=O)C1=C(C(=O)OC)C(c2ccccc2O)c2sc(=O)[nH]c2S1 (centres undefined) | active: 4.23 µM | –
Cc1ccc(NC(=S)Nc2cccc3cnccc23)c(C)c1 | inconclusive: 23.8 µM [inhibitor, single point] | –
Cc1ccc(C(=O)N/C(=C\c2cn(C)c3ccccc23)C(=O)NCCCN2CCOCC2)cc1 | – | inactive: -17.7%
CN(CC(=O)Nc1ccc([N+](=O)[O-])cc1Br)Cc1c(F)cccc1Cl | active: 26.7 µM | –
O=C(NC(=S)Nc1nc(-c2ccccc2)cs1)c1cccnc1 | inconclusive: 26.7 µM [inhibitor, partial curve] | –
COc1ccc(-c2cc(C(F)(F)F)nc(SCC(=O)Nc3sc4c(c3C#N)CCC4)n2)cc1 | inconclusive: 21.2 µM [inhibitor, partial curve] | –
CC1(c2ccc(Cl)cc2Cl)OCC(Cn2ccnc2)O1 (centres undefined) | active: 29.9 µM | –
COc1cc(C(=O)NCCOc2ccccc2C)c(Br)c(OC)c1OC | inconclusive: 29.9 µM [inhibitor, partial curve] | –
Cc1ccc2c(c1)C(=O)C(=O)N2CC1COc2ccccc2O1 (centres undefined) | inconclusive: 37.7 µM [inhibitor, single point] | –

Structure (SMILES) | Potency | max response, negative = inhibition
O=C(CSc1nnnn1-c1ccccc1)Nc1ccc(N2CCOCC2)cc1 | – | inactive: -5.59%
O=C(Nc1c(-c2ccccc2)[nH][nH]c1=O)c1ccc2ccccc2c1 | inconclusive: 8.44 µM [inhibitor, partial curve] | –
Cc1[nH]c2ccccc2c1-c1nc(N)sc1C | inconclusive: 26.7 µM [inhibitor, partial curve] | –
CC1(C(=O)N2Cc3ccccc3C2)CCN1C(=O)C1(c2ccc(Cl)cc2)CC1 (centres undefined) | – | inactive: -11.4%
Cc1cc(OCc2cc(C(=O)N(C)CCCN3CCOCC3)no2)cc(C)c1Cl | inconclusive: 21.2 µM [inhibitor, partial curve] | –
Oc1ccccc1C1Nc2cccc3cccc(c23)N1 | inconclusive: 29.9 µM [inhibitor, single point] | –
COc1ccc(Nc2nc(NC(C)(C)C)nc(N3CCOCC3)n2)c(OC)c1 | inconclusive: 23.8 µM [inhibitor, partial curve] | –
Cc1nnc(NC(=O)CSc2ccc([N+](=O)[O-])cn2)s1 | – | inactive: 3.5%
CN(C(=O)CSc1nc2ccc([N+](=O)[O-])cc2s1)C1CCS(=O)(=O)C1 (centres undefined) | inconclusive: 37.7 µM [inhibitor, single point] | –
COc1ccc(NC(=S)Nc2cc(C)[nH]n2)cc1Cl | active: 16.8 µM | –
Cc1ccccc1-c1n[nH]c(=S)n1/N=C/C=C/c1ccco1 | inconclusive: 23.8 µM [inhibitor, single point] | –
O=C1C=C(O)c2cccc3cccc1c23 | – | inactive: -16.6%
Cc1cc(C(=O)COC(=O)C(C)NC(N)=O)c(C)n1Cc1ccco1 (centres undefined) | – | inactive: -14.5%
COC/C=C/C1=CC2=CC(=O)C(C)(OC(=O)c3cnc4ccccc4n3)C(=O)C2=CN1CCOC (centres undefined) | inconclusive: 75.2 µM [inhibitor, partial curve] | –
COc1ccc(C(=O)NNC(=O)CSc2nc3c(c(=O)n(C)c(=O)n3C)n2C)cc1 | inconclusive: 23.8 µM [inhibitor, single point] | –
S=C(NCc1ccccc1)Nc1cccc2cnccc12 | inconclusive: 26.7 µM [inhibitor, partial curve] | –
COc1cc(CNCCNC(=O)c2nonc2N)ccc1OCc1ccc(Cl)nc1 | active: 29.9 µM | –
O=c1[nH]c(Cc2ccc(F)cc2)nc2scc(-c3ccc(F)cc3)c12 | active: 5.97 µM | –
Cc1ccc2c(c1)cc(CN(Cc1ccc3c(c1)OCO3)C(=O)c1cnccn1)c1nnnn12 | inconclusive: 26.7 µM [inhibitor, single point] | –
COc1ccccc1/C=C/C=N/NC(=O)CCn1nnc2ccccc21 | inconclusive: 13.4 µM [inhibitor, partial curve] | –
O=C(CCn1c(=O)oc2ccccc21)NCc1ccc2c(c1)OCO2 | – | inactive: 1.72%
CCOc1ccc(OCC)c(C2C(C#N)=C(N)N(c3cccnc3)C3=C2C(=O)CC(C)(C)C3)c1 (centres undefined) | – | inactive: -7.43%
COc1ccc(NC(=O)CN2c3cccc4cccc(c34)S2(=O)=O)cc1OC | inconclusive: 37.7 µM [inhibitor, single point] | –
C=CCNC(=O)C(C)Sc1ccc(Cl)cc1 (centres undefined) | active: 29.9 µM | –
O=C(CN1CCN(c2ccc(Cl)cc2)CC1)NCc1cccs1 | inconclusive: 37.7 µM [inhibitor, partial curve] | –

Quoted from the listing:
`Cc1[nH]c2ccccc2c1-c1nc(N)sc1C` | Potency: inconclusive: 26.7 µM [inhibitor, partial curve]
`COc1cc(CNCCNC(=O)c2nonc2N)ccc1OCc1ccc(Cl)nc1` | Potency: active: 29.9 µM

Later entries.

Structure (SMILES) | Potency | max response, negative = inhibition
Cc1ccccc1CN(C)CC(=O)Nc1cccc(S(=O)(=O)N(C)c2ccccc2)c1 | active: 26.7 µM | –
COc1cc(OC)c(Cl)cc1N | active: 6.7 µM | –
Cc1ccc2c(c1)Sc1c(ccc3ccccc13)N2 | inconclusive: 5.32 µM [inhibitor, full curve] | –
CCN(CC)CCNC(=O)C1CCN(S(=O)(=O)c2c(C)noc2/C=C/c2ccccc2F)CC1 | inconclusive: 26.7 µM [inhibitor, partial curve] | –
Cc1sc(NC(=O)C2C3CCC(C3)C2C(=O)O)c(C(N)=O)c1-c1ccc(C(C)(C)C)cc1 (centres undefined) | inconclusive: 18.9 µM [inhibitor, partial curve] | –
O=C(O)c1ccc2cccc(Cl)c2c1O | inconclusive: 21.2 µM [inhibitor, partial curve] | –
Cc1cccc(N2CCN(C(=O)Cc3cn(C)c4ccccc34)CC2)c1C | active: 11.9 µM | –
O=C(c1ccc(=O)oc1)N1CCCc2ccccc21 | inconclusive: 16.8 µM [inhibitor, partial curve] | –
Cc1ccccc1C(O)c1ccccn1 (centres undefined) | – | inactive: -4.15%
CNc1nc(Oc2cccc(F)c2)c2sccc2n1 | – | inactive: 6.39%
CCOC(=S)N/C(=N\S(C)(=O)=O)c1ccccc1 | active: 16.8 µM | –
O=C(COC(=O)c1ccccc1Oc1ccccc1)NCc1ccco1 | inconclusive: 35.5 µM [inhibitor, partial curve] | –
CCCSC1=C(C#N)C(c2ccccc2C)CC(=O)N1 (centres undefined) | inconclusive: 26.7 µM [inhibitor, partial curve] | –
COc1ccc(Cl)cc1C(=O)OCC(=O)c1c(N)n(C)c(=O)n(C)c1=O | – | inactive: -5.73%
Cc1ccc(N=Cc2c(O)n(-c3cc(Cl)ccc3N3CCOCC3)c(=O)c3ccccc23)cc1C | inconclusive: 26.7 µM [inhibitor, single point] | –
CC(C)c1ccc(C2(C)NC(=O)N(CC(=O)NCC3COc4ccccc4O3)C2=O)cc1 (centres undefined) | – | inactive: 2.64%
CCCCCCn1nc(C(=O)OCC(=O)NC2CCS(=O)(=O)C2)c2ccccc2c1=O (centres undefined) | inconclusive: 33.6 µM [inhibitor, single point] | –
Cc1nc(C)c(C(=O)N(c2ccccc2F)C(C(=O)NCC2CCCO2)c2ccccc2)s1 (centres undefined) | active: 26.7 µM | –
CCOC(=O)N1CCN(C(=O)c2cccc(F)c2)CC1 | inconclusive: 6.7 µM [inhibitor, single point] | –
O=[N+]([O-])c1ccc(S(=O)(=O)Nc2cccc(-c3ccc(N4CCOCC4)nn3)c2)cc1 | – | inactive: -10.1%
COCCN(CCOC)S(=O)(=O)c1ccc(C(=O)Nc2sc3c(c2C(N)=O)CCCCC3)cc1 | inconclusive: 33.6 µM [inhibitor, partial curve] | –
COc1ccc(C(=O)/C=C/C(=O)N(CC(=O)NC2CCCCC2)Cc2ccccc2OC)c(O)c1 | inconclusive: 7.52 µM [inhibitor, partial curve] | –
COc1ccc(C(C#N)=C2C=CC(=NO)C=C2)cc1 | active: 26.7 µM | –
COC(=O)/C=c1/s/c(=C(/C#N)C(=O)N2CCOCC2)n(-c2ccccc2)c1=O | active: 26.7 µM | –

Random excerpt: 5 entries already listed, in no set order.
Structure (SMILES) | Potency | max response, negative = inhibition
Cc1[nH]c2ccccc2c1-c1nc(N)sc1C | inconclusive: 26.7 µM [inhibitor, partial curve] | –
Cc1ccccc1CN(C)CC(=O)Nc1cccc(S(=O)(=O)N(C)c2ccccc2)c1 | active: 26.7 µM | –
O=C1C=C(O)c2cccc3cccc1c23 | – | inactive: -16.6%
CC(=O)N(Cc1cc(=O)[nH]c2ccccc12)c1ccc(C)cc1C | inconclusive: 26.7 µM [inhibitor, single point] | –
CN(CC(=O)Nc1ccc([N+](=O)[O-])cc1Br)Cc1c(F)cccc1Cl | active: 26.7 µM | –
